# Data from the supplement of paper PMC10849652.
# The chains behind the UniProt entries cited, without tags or fusion partners. Where a name states a change or a piece, a line headed by the entry shows the natural chain unless it says otherwise.
# UniProt O60504: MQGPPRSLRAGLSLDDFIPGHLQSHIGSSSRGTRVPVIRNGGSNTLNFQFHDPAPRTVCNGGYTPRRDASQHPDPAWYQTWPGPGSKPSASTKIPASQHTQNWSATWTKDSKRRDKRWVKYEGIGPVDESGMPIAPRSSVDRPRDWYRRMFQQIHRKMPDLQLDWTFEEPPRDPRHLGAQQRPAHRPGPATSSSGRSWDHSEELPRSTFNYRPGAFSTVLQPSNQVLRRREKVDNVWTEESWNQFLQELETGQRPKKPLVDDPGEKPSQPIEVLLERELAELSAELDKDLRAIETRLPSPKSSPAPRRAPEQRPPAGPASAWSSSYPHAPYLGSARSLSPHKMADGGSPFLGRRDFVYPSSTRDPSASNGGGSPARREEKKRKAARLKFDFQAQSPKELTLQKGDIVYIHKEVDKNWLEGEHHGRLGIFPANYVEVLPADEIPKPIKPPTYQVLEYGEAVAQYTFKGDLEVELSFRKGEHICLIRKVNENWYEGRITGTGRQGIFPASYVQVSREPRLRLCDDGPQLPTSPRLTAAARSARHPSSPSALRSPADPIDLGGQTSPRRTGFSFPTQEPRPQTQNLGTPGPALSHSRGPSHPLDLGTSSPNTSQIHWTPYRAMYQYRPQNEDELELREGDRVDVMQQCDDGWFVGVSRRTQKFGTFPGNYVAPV
# UniProt O00193: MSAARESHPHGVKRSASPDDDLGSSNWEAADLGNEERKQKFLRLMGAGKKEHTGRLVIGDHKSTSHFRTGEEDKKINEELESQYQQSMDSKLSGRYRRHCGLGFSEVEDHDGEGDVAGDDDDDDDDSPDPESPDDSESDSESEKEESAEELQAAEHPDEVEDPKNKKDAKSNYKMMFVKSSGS
# UniProt Q00796: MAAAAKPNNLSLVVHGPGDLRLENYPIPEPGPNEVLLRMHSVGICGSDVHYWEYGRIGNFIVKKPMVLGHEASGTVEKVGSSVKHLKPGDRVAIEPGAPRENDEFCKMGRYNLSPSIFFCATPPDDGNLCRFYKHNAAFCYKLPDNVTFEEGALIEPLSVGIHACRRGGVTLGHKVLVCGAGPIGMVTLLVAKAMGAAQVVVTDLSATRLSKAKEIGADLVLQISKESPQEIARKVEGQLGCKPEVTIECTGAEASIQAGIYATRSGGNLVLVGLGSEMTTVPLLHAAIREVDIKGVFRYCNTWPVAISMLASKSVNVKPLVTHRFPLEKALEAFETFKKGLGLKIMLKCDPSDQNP
# UniProt Q8N5G0: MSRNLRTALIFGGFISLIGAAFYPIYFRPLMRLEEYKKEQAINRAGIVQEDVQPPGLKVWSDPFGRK
# UniProt Q9H2G2: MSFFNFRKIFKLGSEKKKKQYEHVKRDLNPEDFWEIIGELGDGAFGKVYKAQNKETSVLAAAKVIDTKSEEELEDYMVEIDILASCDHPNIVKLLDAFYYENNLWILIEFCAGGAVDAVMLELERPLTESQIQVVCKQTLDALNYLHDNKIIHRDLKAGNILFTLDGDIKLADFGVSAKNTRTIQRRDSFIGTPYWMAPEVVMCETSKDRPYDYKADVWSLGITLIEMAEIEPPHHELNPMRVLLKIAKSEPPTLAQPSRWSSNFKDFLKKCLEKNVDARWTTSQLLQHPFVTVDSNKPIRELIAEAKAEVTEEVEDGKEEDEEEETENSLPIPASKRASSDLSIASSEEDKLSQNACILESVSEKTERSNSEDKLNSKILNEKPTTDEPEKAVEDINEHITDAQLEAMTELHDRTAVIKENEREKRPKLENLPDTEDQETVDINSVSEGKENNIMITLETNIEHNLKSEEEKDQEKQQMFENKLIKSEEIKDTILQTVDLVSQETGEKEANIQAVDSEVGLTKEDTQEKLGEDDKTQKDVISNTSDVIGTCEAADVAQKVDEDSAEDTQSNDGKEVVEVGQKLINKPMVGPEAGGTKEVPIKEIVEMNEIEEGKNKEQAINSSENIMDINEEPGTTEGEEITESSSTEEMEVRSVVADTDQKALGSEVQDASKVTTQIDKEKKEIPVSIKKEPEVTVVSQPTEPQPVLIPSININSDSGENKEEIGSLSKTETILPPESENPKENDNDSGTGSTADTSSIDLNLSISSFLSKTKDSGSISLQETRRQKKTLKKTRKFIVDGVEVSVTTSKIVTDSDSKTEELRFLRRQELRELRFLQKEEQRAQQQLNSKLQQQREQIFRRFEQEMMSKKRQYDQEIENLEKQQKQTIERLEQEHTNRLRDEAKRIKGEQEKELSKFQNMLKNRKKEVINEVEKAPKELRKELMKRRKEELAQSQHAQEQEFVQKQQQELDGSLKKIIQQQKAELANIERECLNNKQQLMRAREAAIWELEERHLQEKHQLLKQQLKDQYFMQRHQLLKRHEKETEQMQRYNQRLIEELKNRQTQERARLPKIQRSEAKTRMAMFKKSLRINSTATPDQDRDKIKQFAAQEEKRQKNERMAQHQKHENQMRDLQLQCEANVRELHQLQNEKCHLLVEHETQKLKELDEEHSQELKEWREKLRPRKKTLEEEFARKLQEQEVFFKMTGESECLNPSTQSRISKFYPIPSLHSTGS
# UniProt P52788: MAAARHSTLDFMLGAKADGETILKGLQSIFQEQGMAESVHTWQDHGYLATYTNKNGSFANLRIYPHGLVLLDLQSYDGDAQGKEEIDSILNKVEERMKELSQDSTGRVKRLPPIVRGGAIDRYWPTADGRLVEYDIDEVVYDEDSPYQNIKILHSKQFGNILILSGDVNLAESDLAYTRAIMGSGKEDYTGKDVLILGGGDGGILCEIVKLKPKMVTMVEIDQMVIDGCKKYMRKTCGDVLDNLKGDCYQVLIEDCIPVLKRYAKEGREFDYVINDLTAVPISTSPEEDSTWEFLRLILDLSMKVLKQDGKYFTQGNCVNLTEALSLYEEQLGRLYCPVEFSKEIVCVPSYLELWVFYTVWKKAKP
# UniProt Q9BT81: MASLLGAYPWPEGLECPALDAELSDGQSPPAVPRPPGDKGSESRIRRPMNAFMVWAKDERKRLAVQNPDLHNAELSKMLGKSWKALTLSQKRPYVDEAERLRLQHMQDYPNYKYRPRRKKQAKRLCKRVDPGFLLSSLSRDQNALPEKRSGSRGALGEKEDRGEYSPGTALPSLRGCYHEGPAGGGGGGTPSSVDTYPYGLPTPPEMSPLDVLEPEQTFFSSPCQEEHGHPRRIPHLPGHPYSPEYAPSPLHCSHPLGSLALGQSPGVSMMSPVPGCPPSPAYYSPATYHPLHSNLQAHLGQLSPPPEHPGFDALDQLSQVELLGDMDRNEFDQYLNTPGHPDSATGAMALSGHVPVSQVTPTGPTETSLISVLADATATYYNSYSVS
# UniProt Q7Z3B0: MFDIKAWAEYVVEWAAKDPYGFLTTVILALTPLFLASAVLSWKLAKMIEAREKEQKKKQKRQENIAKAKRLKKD
# UniProt Q969G3, whole entry, looked up: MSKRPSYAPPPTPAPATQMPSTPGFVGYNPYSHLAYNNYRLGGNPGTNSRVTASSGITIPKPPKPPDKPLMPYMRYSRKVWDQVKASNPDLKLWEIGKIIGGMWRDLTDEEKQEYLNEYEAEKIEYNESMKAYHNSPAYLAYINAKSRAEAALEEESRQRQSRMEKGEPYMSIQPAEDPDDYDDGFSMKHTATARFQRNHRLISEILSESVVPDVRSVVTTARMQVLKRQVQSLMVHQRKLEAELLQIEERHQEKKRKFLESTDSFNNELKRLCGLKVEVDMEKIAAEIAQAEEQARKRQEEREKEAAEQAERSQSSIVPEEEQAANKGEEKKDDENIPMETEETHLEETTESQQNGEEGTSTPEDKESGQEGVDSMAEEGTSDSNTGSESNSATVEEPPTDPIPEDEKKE
# UniProt Q9H4I9: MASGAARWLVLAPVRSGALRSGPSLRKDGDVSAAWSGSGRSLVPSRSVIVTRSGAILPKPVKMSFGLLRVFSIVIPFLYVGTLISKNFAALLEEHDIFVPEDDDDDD
# UniProt P51532, whole entry, looked up: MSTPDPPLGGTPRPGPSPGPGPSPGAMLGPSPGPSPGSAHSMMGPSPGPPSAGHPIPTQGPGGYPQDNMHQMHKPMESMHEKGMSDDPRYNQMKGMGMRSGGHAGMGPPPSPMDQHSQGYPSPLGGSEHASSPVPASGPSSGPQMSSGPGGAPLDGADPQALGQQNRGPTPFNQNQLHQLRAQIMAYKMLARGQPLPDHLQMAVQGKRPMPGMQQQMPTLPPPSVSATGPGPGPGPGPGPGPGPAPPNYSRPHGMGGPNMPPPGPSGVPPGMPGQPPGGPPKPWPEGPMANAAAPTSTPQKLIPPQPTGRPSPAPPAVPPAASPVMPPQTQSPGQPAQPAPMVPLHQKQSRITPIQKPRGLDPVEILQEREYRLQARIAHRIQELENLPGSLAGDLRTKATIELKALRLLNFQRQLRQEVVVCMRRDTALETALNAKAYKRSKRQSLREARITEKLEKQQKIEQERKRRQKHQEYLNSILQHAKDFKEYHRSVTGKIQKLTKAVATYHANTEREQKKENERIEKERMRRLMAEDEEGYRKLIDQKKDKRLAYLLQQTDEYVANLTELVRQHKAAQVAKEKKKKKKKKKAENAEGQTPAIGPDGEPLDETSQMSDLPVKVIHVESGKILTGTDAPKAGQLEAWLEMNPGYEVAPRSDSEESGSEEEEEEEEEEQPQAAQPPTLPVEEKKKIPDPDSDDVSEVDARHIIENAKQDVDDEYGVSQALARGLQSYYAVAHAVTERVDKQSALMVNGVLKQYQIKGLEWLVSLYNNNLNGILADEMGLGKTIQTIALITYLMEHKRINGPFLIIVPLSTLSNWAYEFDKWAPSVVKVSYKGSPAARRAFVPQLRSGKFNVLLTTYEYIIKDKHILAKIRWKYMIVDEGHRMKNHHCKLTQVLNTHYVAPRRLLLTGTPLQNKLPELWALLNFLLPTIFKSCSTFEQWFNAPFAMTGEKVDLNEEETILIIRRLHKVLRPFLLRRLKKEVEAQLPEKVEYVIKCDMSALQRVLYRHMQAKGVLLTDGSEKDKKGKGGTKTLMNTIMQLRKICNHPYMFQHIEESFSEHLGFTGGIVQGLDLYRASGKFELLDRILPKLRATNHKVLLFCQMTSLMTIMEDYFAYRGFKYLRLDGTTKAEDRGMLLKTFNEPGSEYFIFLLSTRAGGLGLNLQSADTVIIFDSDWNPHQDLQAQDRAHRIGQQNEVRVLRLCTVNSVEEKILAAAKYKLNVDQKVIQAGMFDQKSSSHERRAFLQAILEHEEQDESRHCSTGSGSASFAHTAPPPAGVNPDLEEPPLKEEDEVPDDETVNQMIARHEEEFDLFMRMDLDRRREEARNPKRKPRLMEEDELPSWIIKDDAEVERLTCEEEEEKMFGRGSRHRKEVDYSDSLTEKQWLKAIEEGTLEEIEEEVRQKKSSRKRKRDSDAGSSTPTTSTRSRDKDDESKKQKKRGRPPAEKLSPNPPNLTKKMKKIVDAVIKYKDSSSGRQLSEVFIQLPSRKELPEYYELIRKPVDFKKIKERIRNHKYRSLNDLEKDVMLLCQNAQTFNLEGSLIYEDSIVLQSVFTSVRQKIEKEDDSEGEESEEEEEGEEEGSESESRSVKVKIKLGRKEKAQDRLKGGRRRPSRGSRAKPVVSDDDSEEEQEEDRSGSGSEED
# UniProt P28370, whole entry, looked up: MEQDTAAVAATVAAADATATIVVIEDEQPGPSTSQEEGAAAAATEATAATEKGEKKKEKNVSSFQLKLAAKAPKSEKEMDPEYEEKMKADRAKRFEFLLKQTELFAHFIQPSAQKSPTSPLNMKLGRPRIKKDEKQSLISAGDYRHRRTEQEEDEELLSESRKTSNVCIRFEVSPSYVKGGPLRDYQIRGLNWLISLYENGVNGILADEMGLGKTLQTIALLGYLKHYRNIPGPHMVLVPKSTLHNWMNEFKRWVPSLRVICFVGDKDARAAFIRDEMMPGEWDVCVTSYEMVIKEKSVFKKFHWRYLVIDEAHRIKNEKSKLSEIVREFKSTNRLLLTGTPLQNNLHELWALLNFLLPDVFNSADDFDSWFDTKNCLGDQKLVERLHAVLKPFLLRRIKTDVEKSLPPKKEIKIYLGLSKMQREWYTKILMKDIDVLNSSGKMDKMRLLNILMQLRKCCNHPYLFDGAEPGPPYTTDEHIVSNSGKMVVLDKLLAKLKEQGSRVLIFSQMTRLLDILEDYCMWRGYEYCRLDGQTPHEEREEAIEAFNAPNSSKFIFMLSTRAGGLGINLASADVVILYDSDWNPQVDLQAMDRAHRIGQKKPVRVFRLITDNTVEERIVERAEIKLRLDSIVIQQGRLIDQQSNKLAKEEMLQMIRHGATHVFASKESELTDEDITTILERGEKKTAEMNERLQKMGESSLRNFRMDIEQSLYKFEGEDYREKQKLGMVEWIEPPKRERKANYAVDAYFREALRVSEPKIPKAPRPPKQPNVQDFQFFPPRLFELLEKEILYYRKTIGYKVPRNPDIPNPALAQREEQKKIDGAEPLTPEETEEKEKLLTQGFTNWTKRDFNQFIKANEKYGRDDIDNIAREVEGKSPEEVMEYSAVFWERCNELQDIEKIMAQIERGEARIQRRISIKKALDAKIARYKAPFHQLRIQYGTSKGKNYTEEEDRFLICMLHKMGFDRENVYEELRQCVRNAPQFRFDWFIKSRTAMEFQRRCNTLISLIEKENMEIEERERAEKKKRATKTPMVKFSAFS
# The list shows a part of the results.
# Compound: Cc1ncc(-c2ccnc(Nc3ccc(S(C)(=O)=O)cc3)n2)n1C(C)C
# Experiment: log2 fold change, soluble protein after heating vs DMSO (PISA); higher = thermal stabilisation; K562 cells, 10 uM, 30 min; active = over 0.2 and 3.5 SD of the protein, either way, in both replicates (recomputed)
# How it was run: (§1)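 Aliquots of K562 cells (2×10^6 cells/mL) treated with 10 μM compound for 30 min were heated for 3 min over 48°C-58°C. After pooling and extraction in PBS with 0.5% NP-40 at 4°C, soluble protein from a 21,000xg, 90 min spin was quantified by TMTpro 16plex LC-MS/MS with channel sums equalised. Thermal stability is expressed against control samples, from duplicates, as a log2 fold change.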
row,Target,log2 fold change
1,SORBS1 isoform 12 (UniProt Q9BX66),inactive: -0.025
2,SORBS3 (UniProt O60504),inactive: -0.099
3,SLCO4A1 (UniProt Q96BD0),inactive: 0.016
4,SON isoform 9 (UniProt P18583),inactive: 0.146
5,SMIM1 (UniProt B2RUZ4),inactive: 0.206
6,SMAP (UniProt O00193),inactive: -0.011
7,SORD (UniProt Q00796),inactive: 0.003
8,SPAG7 (UniProt O75391),inactive: -0.003
9,SMIM20 isoform 2 (UniProt Q8N5G0),inactive: -0.102
10,SMIM8 (UniProt Q96KF7),inactive: -0.07
11,SMG6 (UniProt Q86US8),inactive: -0.148
12,SNX8 (UniProt Q9Y5X2),inactive: -0.052
13,SLC9A1 (UniProt P19634),inactive: 0.019
14,SNX12 isoform 1 (UniProt Q9UMY4),inactive: -0.191
15,SLK isoform 2 (UniProt Q9H2G2),inactive: 0.015
16,SNAP91 (UniProt O60641),inactive: 0.004
17,SLC7A6OS (UniProt Q96CW6),inactive: -0.031

row,Target,log2 fold change
1,SNX16 (UniProt P57768),inactive: -0.039
2,SNAPC5 (UniProt O75971),inactive: 0.04
3,SLC7A6 (UniProt Q92536),inactive: -0.007
4,SOCS2 (UniProt O14508),inactive: 0.013
5,SNX1 (UniProt Q13596),active: -0.45
6,SMS (UniProt P52788),inactive: -0.013
7,SMAD5 (UniProt Q99717),inactive: 0.118
8,SOX7 isoform 2 (UniProt Q9BT81),inactive: 0.135
9,SMARCA2 (UniProt P51531),inactive: -0.049
10,SMG1 (UniProt Q96Q15),inactive: -0.015
11,SMAD4 (UniProt Q13485),inactive: -0.024
12,SMIM15 (UniProt Q7Z3B0),inactive: 0.007
13,SLMAP (UniProt Q14BN4),inactive: 0.006
14,SMARCAD1 isoform 2 (UniProt Q9H4L7),inactive: -0.049
15,SMCR8 (UniProt Q8TEV9),inactive: -0.021
16,SMARCE1 (UniProt Q969G3),inactive: -0.055

# Compound: Cn1cc(-c2ccc3c(c2)CCN3C(=O)Cc2cccc(C(F)(F)F)c2)c2c(N)ncnc21
# Experiment: as above
# How it was run: as §1
row,Target,log2 fold change
1,SORBS1 isoform 12 (UniProt Q9BX66),inactive: 0.073
2,SLCO4A1 (UniProt Q96BD0),inactive: 0
3,SMIM1 (UniProt B2RUZ4),inactive: 0.13
4,SMAP (UniProt O00193),inactive: 0.005
5,SORD (UniProt Q00796),inactive: 0.06
6,SPAG7 (UniProt O75391),inactive: -0.009
7,SMDT1 (UniProt Q9H4I9),inactive: 0.137
8,SMIM20 isoform 2 (UniProt Q8N5G0),inactive: 0.05
9,SMIM8 (UniProt Q96KF7),inactive: 0.004
10,SMG6 (UniProt Q86US8),inactive: -0.031
11,SMPD4 isoform 2 (UniProt Q9NXE4),inactive: 0.09
12,SNX8 (UniProt Q9Y5X2),inactive: 0.001
13,SMARCA4 (UniProt P51532),inactive: -0.036
14,SNX12 isoform 1 (UniProt Q9UMY4),inactive: 0.038
15,SMYD2 (UniProt Q9NRG4),inactive: 0.111
16,SLK isoform 2 (UniProt Q9H2G2),active: -0.289
17,SNAP91 (UniProt O60641),inactive: 0.053
18,SLC7A6OS (UniProt Q96CW6),inactive: 0.026

row,Target,log2 fold change
1,SMG9 (UniProt Q9H0W8),inactive: -0.022
2,SNX16 (UniProt P57768),inactive: -0.104
3,SLC7A6 (UniProt Q92536),inactive: 0.024
4,SOCS2 (UniProt O14508),inactive: 0.047
5,SNX1 (UniProt Q13596),inactive: 0.07
6,SLC8B1 (UniProt Q6J4K2),inactive: -0.019
7,SMS (UniProt P52788),inactive: 0.019
8,SMAD5 (UniProt Q99717),inactive: -0.154
9,SOX7 isoform 2 (UniProt Q9BT81),inactive: -0.244
10,SMARCA1 (UniProt P28370),inactive: -0.111
11,SMG1 (UniProt Q96Q15),inactive: -0.035
12,SMAD4 (UniProt Q13485),inactive: 0.029
13,SMIM15 (UniProt Q7Z3B0),inactive: 0.036
14,SLMAP (UniProt Q14BN4),inactive: -0.116
15,SMARCAD1 isoform 2 (UniProt Q9H4L7),inactive: 0.088
16,SMCR8 (UniProt Q8TEV9),inactive: 0.01
17,SMARCE1 (UniProt Q969G3),inactive: -0.056
